Measurements from PMC11039529.
These are yes or no findings as the source states them, for the method shown. Binding seen in cells or lysates may run through a third protein. A yes stands for co-enrichment or nearness to the bait. Other partners may have been found.

Protein sequences, listed by entry. Tags and fused reporters are not part of them. Lines headed by an entry give the natural chain unless they say otherwise; changes in a name come on top. Chains listed by the source or under a name are the forms on record and can include a tag or linker.
GFP-tagged Zip, over-expressed from UAS-GFP-zip (Q99323, form named): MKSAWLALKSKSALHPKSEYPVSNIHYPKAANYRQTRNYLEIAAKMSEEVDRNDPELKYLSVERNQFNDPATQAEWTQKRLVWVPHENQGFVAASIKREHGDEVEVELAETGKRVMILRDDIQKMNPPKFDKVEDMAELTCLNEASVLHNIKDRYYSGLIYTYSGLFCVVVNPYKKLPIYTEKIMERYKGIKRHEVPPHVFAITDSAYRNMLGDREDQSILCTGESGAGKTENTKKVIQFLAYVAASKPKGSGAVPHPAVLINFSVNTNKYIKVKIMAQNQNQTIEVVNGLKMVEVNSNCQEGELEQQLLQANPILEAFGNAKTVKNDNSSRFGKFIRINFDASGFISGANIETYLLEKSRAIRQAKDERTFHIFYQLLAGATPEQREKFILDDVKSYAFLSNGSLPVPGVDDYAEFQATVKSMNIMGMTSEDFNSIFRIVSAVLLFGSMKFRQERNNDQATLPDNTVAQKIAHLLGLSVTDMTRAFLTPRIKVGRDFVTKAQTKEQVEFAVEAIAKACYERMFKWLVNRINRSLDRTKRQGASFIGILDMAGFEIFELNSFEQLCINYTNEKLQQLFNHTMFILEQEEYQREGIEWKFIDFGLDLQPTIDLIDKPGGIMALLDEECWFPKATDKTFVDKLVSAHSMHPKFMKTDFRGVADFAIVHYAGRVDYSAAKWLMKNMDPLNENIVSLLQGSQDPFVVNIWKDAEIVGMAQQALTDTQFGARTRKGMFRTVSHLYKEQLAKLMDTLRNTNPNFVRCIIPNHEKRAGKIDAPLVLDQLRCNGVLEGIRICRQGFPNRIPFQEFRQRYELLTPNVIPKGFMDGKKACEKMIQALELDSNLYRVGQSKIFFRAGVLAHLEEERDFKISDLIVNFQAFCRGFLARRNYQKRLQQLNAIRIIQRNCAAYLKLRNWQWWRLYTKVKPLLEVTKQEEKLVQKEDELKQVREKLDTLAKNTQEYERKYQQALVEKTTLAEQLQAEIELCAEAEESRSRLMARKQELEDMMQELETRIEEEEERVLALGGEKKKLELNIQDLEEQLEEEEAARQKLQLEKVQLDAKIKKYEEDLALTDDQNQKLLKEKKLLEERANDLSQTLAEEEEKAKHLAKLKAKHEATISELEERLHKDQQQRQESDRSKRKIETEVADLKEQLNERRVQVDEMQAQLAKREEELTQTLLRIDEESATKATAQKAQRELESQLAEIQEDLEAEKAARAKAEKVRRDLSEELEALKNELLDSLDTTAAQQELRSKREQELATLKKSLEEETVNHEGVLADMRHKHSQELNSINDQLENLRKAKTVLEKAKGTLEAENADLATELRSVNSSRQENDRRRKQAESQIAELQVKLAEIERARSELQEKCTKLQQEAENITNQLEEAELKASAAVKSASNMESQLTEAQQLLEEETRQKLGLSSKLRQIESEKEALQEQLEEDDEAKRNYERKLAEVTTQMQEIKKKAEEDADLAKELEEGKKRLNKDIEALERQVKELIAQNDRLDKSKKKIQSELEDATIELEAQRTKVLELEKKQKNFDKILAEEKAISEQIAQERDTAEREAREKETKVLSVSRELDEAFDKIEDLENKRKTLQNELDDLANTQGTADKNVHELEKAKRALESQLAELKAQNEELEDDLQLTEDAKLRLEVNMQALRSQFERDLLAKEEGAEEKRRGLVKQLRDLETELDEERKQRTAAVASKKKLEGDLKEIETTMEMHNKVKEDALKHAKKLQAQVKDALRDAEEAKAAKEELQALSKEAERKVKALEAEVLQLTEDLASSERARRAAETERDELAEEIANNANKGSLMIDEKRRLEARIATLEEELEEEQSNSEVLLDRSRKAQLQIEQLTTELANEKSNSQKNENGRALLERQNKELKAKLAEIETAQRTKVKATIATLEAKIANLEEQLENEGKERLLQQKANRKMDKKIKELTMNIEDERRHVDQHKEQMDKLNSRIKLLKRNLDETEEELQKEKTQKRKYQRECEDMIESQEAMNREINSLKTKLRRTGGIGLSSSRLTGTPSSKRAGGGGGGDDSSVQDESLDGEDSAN
UniProt P17210: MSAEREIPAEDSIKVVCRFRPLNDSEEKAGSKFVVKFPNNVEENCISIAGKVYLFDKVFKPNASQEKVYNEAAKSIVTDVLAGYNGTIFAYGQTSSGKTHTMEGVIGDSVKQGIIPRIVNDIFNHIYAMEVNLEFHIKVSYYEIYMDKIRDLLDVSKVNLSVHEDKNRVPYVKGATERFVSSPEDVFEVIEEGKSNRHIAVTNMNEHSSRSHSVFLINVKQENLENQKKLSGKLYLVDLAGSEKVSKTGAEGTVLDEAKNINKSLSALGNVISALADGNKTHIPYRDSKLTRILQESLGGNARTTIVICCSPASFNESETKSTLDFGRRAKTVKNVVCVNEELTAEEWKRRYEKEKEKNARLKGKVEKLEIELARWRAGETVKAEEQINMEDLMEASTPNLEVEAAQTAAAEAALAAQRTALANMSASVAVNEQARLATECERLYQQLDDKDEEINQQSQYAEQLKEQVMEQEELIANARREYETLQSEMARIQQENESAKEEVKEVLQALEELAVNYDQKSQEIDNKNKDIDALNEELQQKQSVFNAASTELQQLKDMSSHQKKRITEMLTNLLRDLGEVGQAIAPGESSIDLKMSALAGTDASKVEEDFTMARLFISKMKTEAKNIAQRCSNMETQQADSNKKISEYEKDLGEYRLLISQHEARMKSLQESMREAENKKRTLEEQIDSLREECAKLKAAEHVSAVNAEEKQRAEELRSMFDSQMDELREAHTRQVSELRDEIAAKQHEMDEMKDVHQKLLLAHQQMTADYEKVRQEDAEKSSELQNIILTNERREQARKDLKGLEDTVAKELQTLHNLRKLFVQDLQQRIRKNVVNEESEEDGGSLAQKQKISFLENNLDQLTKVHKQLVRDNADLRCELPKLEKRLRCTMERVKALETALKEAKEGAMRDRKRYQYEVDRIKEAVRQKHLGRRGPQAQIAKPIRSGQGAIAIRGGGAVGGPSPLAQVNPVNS
UniProt P29742: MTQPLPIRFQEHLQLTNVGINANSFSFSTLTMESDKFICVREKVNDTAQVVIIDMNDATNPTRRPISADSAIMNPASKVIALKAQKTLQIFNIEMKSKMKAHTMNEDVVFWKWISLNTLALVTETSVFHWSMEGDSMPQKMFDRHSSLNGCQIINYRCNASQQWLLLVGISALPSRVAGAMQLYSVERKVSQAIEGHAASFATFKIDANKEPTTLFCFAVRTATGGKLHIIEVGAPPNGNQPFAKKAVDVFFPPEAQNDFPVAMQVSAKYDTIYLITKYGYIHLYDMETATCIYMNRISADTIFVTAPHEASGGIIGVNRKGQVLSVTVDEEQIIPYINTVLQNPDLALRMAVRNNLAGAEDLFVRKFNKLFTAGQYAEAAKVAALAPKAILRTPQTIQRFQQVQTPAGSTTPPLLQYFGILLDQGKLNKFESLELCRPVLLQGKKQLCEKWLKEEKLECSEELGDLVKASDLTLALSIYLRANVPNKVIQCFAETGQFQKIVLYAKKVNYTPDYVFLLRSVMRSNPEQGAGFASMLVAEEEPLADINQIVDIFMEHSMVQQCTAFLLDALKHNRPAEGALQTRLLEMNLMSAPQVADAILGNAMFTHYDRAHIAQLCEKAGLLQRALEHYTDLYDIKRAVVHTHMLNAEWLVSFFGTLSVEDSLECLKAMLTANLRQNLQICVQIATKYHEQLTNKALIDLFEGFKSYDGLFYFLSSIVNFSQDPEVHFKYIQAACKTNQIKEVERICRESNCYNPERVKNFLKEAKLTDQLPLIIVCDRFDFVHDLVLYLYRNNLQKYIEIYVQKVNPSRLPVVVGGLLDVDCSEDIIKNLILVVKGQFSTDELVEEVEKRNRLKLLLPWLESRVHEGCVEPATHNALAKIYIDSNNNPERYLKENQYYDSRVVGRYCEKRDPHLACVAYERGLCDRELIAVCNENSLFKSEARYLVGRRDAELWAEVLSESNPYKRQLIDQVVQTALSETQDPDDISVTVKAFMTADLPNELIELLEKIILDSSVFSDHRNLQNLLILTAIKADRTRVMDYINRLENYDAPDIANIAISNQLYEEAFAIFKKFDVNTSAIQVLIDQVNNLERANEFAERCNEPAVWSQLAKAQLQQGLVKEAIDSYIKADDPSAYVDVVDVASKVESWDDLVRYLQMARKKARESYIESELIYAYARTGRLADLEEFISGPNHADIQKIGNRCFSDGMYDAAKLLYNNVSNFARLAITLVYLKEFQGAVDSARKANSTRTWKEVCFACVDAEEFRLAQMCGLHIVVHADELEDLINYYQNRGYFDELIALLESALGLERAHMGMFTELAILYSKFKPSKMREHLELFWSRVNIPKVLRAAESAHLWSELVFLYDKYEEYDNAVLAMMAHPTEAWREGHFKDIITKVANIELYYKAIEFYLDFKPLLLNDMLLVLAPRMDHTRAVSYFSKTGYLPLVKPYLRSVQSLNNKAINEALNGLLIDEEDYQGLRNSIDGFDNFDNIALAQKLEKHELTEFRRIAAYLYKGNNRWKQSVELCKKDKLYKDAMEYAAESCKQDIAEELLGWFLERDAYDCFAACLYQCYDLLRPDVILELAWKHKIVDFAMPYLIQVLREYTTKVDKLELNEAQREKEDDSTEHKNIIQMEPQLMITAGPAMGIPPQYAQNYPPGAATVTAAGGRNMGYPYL

Molecular target: GFP-tagged Zip, over-expressed from UAS-GFP-zip (Drosophila) (UniProt Q99323)
Assay: affinity purification with mass spectrometry; anti-GFP immunoprecipitation from GFP-Zip over-expression lysate; in-solution trypsin digestion; high-resolution mass spectrometry (Orbitrap Eclipse Tribrid); sequence score > 40

binding | Molecule
binds | Ras-related protein Rab 3 (protein, UniProt P25228 1-220) MASGGDPKWQKDAADQNFDYMFKLLIIGNSSVGKTSFLFRYADDSFTSAFVSTVGIDFKVKTVFRHDKRVKLQIWDTAGQERYRTITTAYYRGAMGFILMYDVTNEDSFNSVQDWVTQIKTYSWDNAQVILVGNKCDMEDQRVISFERGRQLADQLGVEFFETSAKENVNVKAVFERLVDIICDKMSESLDADPTLVGGGQKGQRLTDQPQGTPNANCNC
binds | Dynamin (protein, UniProt P27619 1-877) MDSLITIVNKLQDAFTSLGVHMQLDLPQIAVVGGQSAGKSSVLENFVGKDFLPRGSGIVTRRPLILQLINGVTEYGEFLHIKGKKFSSFDEIRKEIEDETDRVTGSNKGISNIPINLRVYSPHVLNLTLIDLPGLTKVAIGDQPVDIEQQIKQMIFQFIRKETCLILAVTPANTDLANSDALKLAKEVDPQGVRTIGVITKLDLMDEGTDARDILENKLLPLRRGYIGVVNRSQKDIEGRKDIHQALAAERKFFLSHPSYRHMADRLGTPYLQRVLNQQLTNHIRDTLPGLRDKLQKQMLTLEKEVEEFKHFQPGDASIKTKAMLQMIQQLQSDFERTIEGSGSALVNTNELSGGAKINRIFHERLRFEIVKMACDEKELRREISFAIRNIHGIRVGLFTPDMAFEAIVKRQIALLKEPVIKCVDLVVQELSVVVRMCTAKMSRYPRLREETERIITTHVRQREHSCKEQILLLIDFELAYMNTNHEDFIGFANAQNKSENANKTGTRQLGNQVIRKGHMVIQNLGIMKGGSRPYWFVLTSESISWYKDEDEKEKKFMLPLDGLKLRDIEQGFMSMSRRVTFALFSPDGRNVYKDYKQLELSCETVEDVESWKASFLRAGVYPEKQETQENGDESASEESSSDPQLERQVETIRNLVDSYMKIVTKTTRDMVPKAIMMLIINNAKDFINGELLAHLYASGDQAQMMEESAESATRREEMLRMYRACKDALQIIGDVSMATVSSPLPPPVKNDWLPSGLDNPRLSPPSPGGVRGKPGPPAQSSLGGRNPPLPPSTGRPAPAIPNRPGGGAPPLPGGRPGGSLPPPMLPSRVSGAVGGAIVQQSGANRYVPESMRGQVNQAVGQAAINELSNAFSSRFK
binds | AP-2 complex subunit alpha (protein, UniProt P91926 1-940) MAPVRGDGMRGLAVFISDIRNCKSKEAEVKRINKELANIRSKFKGDKTLDGYQKKKYVCKLLFIFLLGHDIDFGHMEAVNLLSSNKYSEKQIGYLFISVLVNTNSDLIRLIIQSIKNDLQSRNPVHVNLALQCIANIGSRDMAESFSNEIPKLLVSGDTMDVVKQSAALCLLRLFRSSPDIIPGGEWTSRIIHLLNDQHMGVVTAATSLIDALVKRNPDEYKGCVNLAVSRLSRIVTASYTDLQDYTYYFVPAPWLSVKLLRLLQNYNPVTEEAGVRARLNETLETILNKAQEPPKSKKVQHSNAKNAVLFEAINLIIHSDSEPNLLVRACNQLGQFLSNRETNLRYLALESMCHLATSEFSHEEVKKHQEVVILSMKMEKDVSVRQMAVDLLYAMCDRGNAEEIVQEMLNYLETADYSIREEMVLKVAILAEKYATDYTWYVDVILNLIRIAGDYVSEEVWYRVIQIVINREEVQGYAAKTVFEALQAPACHENMVKVGGYILGEFGNLIAGDSRSAPLVQFKLLHSKYHLCSPMTRALLLSTYIKFINLFPEIRTNIQDVFRQHSNLRSADAELQQRASEYLQLSIVASTDVLATVLEEMPSFPERESSILAVLKKKKPGRVPENEIRESKSPAPLTSAAQNNALVNNSHSKLNNSNANTDLLGLSTPPSNNIGSGSNSNSTLIDVLGDMYGSNSNNNSSAVYNTKKFLFKNNGVLFENEMLQIGVKSEFRQNLGRLGLFYGNKTQVPLTNFNPVLQWSAEDALKLNVQMKVVEPTLEAGAQIQQLLTAECIEDYADAPTIEISFRYNGTQQKFSIKLPLSVNKFFEPTEMNAESFFARWKNLSGEQQRSQKVFKAAQPLDLPGARNKLMGFGMQLLDQVDPNPDNMVCAGIIHTQSQQVGCLMRLEPNKQAQMFRLTVRASKETVTREICDLLTDQF

The next lines start with the molecule.

Molecule | binding
Kinesin heavy chain (from UniProt P17210 1-975) | binds
Clathrin heavy chain (from UniProt P29742 1-1678) | binds
